Results deposited as PubChem BioAssay AID504744 (Drosophila RNAi Screening Center, 2011).

Aim: 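Uncover factors, including feedback loops, that control dAkt activation in fly cells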 (primary screen)
Cells: Drosophila Kc167 cells
Reagent: long dsRNA against Drosophila genes, 250 ng dsRNA per well of a 384-well plate
Time to read-out: 3 days of knock-down, then overnight serum-free starvation before stimulation
Conditions: bovine insulin at 387 nM for 10 minutes after 12 h without serum
Read-out: 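Per-well phospho-dAkt level from an in-cell fluorescent antibody stain, divided by a DNA-dye signal; log2 residuals turned into z-scores that take cell number into account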
Call rule: 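Hit in the insulin screen when the two-replicate mean z-score is more extreme than plus or minus 2.5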
The screen tested about 23,000 reagents; below is an unselected part of those with a known target gene and a result. Of all reagents, 98 (0.43%) were called active. 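Only hit calls are given; the phospho-dAkt signals, z-scores and hit direction were not deposited.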 A plus sign joins genes that one reagent is predicted to hit. No sequences are given here.

Rbp (GeneID 41880) [DRSC15724] → outcome = inactive
Rbp (GeneID 41880) [DRSC15726] → outcome = inactive
AttC (GeneID 36484) [DRSC06886] → outcome = inactive
Dnaaf4 (GeneID 34547) [DRSC02405] → outcome = inactive
Keap1 (GeneID 42062) [DRSC15528] → outcome = inactive
Rgl (GeneID 44115) [DRSC11267] → outcome = inactive
CG7031 (GeneID 42704) [DRSC16178] → outcome = inactive
Vha14-1 (GeneID 36731) [DRSC07571] → outcome = inactive
Mnn1 (GeneID 33991) [DRSC03368] → outcome = inactive
CG10337 (GeneID 35247) [DRSC02038] → outcome = inactive
Cyp12e1 (GeneID 41272) [DRSC16622] → outcome = inactive
Pgam5-2 (GeneID 37899) [DRSC04278] → outcome = inactive
CG10550 (GeneID 43061) [DRSC14251] → outcome = inactive
CG13589 (GeneID 37906) [DRSC04225] → outcome = inactive
CG10254 (GeneID 42793) [DRSC14153] → outcome = inactive
Rbpn-5 (GeneID 37395) [DRSC04440] → outcome = inactive
CG33655 (GeneID 8674081) [DRSC03858] → outcome = inactive
CG14506 (GeneID 43467) [DRSC14858] → outcome = inactive
CSN6 (GeneID 42661) [DRSC16593] → outcome = inactive
Tsp42A (GeneID 35515) [DRSC04862] → outcome = inactive
CG13606 (GeneID 42873) [DRSC14609] → outcome = inactive
Mal-A1 (GeneID 35824) [DRSC07461] → outcome = inactive
CG32447 (GeneID 40412) [DRSC11732] → outcome = inactive
CG32447 (GeneID 40412) [DRSC11805] → outcome = inactive
alpha-PheRS (GeneID 31740) [DRSC18224] → outcome = inactive
rudhira (GeneID 32136) [DRSC19821] → outcome = inactive
rudhira (GeneID 32136) [DRSC22111] → outcome = inactive
fabp + sea [DRSC16114] → outcome = inactive
fabp + sea [DRSC16115] → outcome = inactive
CG32762 (GeneID 318198) [DRSC18298] → outcome = inactive
Lcp9 (GeneID 37963) [DRSC04287] → outcome = inactive
CG33914 (GeneID 3772464) [DRSC05033] → outcome = inactive
CG30103 (GeneID 36969) [DRSC06894] → outcome = inactive
CG8461 (GeneID 41758) [DRSC16424] → outcome = inactive
CG3448 (GeneID 39094) [DRSC10368] → outcome = inactive
Naa30B (GeneID 317976) [DRSC08245] → outcome = inactive
CG8788 (GeneID 35932) [DRSC07267] → outcome = inactive
Rdh (GeneID 2769007) [DRSC08063] → outcome = inactive
Rdh (GeneID 2769007) [DRSC08434] → outcome = inactive
Rab1 (GeneID 42524) [DRSC16808] → outcome = inactive
CG2685 (GeneID 31259) [DRSC18463] → outcome = inactive
CG16985 (GeneID 38323) [DRSC08501] → outcome = inactive
Vps51 (GeneID 37156) [DRSC06519] → outcome = inactive
CG31457 (GeneID 326142) [DRSC22935] → outcome = inactive
CG8004 (GeneID 40178) [DRSC10947] → outcome = inactive
CG7227 (GeneID 34088) [DRSC03032] → outcome = inactive
CG45002 (GeneID 32688) [DRSC20144] → outcome = inactive
beat-VI (GeneID 43377) [DRSC14474] → outcome = inactive
beat-VI (GeneID 43377) [DRSC14727] → outcome = inactive
CG10226 (GeneID 38725) [DRSC09715] → outcome = inactive
azot (GeneID 35751) [DRSC06051] → outcome = inactive
Tbce (GeneID 35532) [DRSC04897] → outcome = inactive
retm (GeneID 33899) [DRSC03252] → outcome = inactive
CG5828 (GeneID 33742) [DRSC02900] → outcome = inactive
borr (GeneID 34245) [DRSC02749] → outcome = inactive
thw (GeneID 40868) [DRSC12552] → outcome = inactive
otk2 (GeneID 36284) [DRSC07303] → outcome = inactive
Dus4 (GeneID 35179) [DRSC02066] → outcome = inactive
r-l (GeneID 42493) [DRSC17042] → outcome = inactive
r-l (GeneID 42493) [DRSC22784] → outcome = inactive
Cow (GeneID 42733) [DRSC13601] → outcome = inactive
Cow (GeneID 42733) [DRSC14680] → outcome = inactive
Nepl3 (GeneID 326172) [DRSC02681] → outcome = inactive
ppk27 (GeneID 38440) [DRSC08168] → outcome = inactive
ppk27 (GeneID 38440) [DRSC22211] → outcome = inactive
dco (GeneID 43673) [DRSC16929] → outcome = inactive
PIP5K59B (GeneID 37633) [DRSC04290] → outcome = inactive
PIP5K59B (GeneID 37633) [DRSC04403] → outcome = inactive
Nos (GeneID 34495) [DRSC03381] → outcome = inactive
lncRNA:noe (GeneID 43918) [DRSC22747] → outcome = inactive
Faa (GeneID 45577) [DRSC08451] → outcome = inactive
CG31269 (GeneID 318653) [DRSC15744] → outcome = inactive
CG31274 + MESK4 [DRSC13202] → outcome = inactive
